Measured values as given in the supplement of paper PMC8728848.
The other results are listed elsewhere or left out.

What was measured:
Assay in all cases: glycan array binding signal (z-score within array); higher = stronger binding
Details in all cases: glycan notation: IUPAC condensed, linker removed
[1] = target: Gal(b1-3)GlcNAc(b1-6)GalNAc
Method in brief: (§1)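 The binding signal is a Z-score computed within each array. Data were drawn from 3228 arrays in the Consortium for Functional Glycomics database, restricted to those with a known protein sequence. Scores were averaged over arrays of the same protein sequence at different concentrations or buffers, and over linkers, and negative values can be taken as non-binding.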

[2] = target: Gal(b1-3)GlcNAc(b1-6)[Gal(b1-3)]GalNAc
Method in brief: as §1

[3] = target: Gal(b1-3)GlcNAc6S
Method in brief: as §1

[4] = target: Gal(b1-3)[Fuc(a1-4)]GlcNAc
Method in brief: as §1

[5] = target: Gal(b1-3)[Fuc(a1-4)]GlcNAc(b1-2)Man
Method in brief: as §1

[6] = target: Gal(b1-3)[Fuc(a1-4)]GlcNAc(b1-2)Man(a1-3)[Gal(b1-3)[Fuc(a1-4)]GlcNAc(b1-2)Man(a1-6)]Man(b1-4)GlcNAc(b1-4)[Fuc(a1-6)]GlcNAc
Method in brief: as §1

[7] = target: Gal(b1-3)[Fuc(a1-4)]GlcNAc(b1-3)Gal(b1-3)[Fuc(a1-4)]GlcNAc
Method in brief: as §1

[8] = target: Gal(b1-3)[Fuc(a1-4)]GlcNAc(b1-3)Gal(b1-4)[Fuc(a1-3)]GlcNAc
Method in brief: as §1

[9] = target: Gal(b1-3)[Fuc(a1-4)]GlcNAc(b1-6)GalNAc
Method in brief: as §1

[10] = target: Gal(b1-3)[GlcNAc(b1-6)]GalNAc
Method in brief: as §1

[11] = target: Gal(b1-3)[Neu5Ac(a2-6)]GalNAc
Method in brief: as §1

[12] = target: Gal(b1-3)[Neu5Ac(a2-6)]GlcNAc(b1-4)Gal(b1-4)Glc
Method in brief: as §1

[13] = target: Gal(b1-3)[Neu5Ac(b2-6)]GalNAc
Method in brief: as §1

[14] = target: Gal(b1-4)Gal
Method in brief: as §1

[15] = target: Gal(b1-4)GalNAc(a1-3)[Fuc(a1-2)]Gal(b1-4)GlcNAc
Method in brief: as §1

[16] = target: Gal(b1-4)GalNAc(b1-3)[Fuc(a1-2)]Gal(b1-4)GlcNAc
Method in brief: as §1

[17] = target: Gal(b1-4)Glc
Method in brief: as §1

[18] = target: Gal(b1-4)Glc6S
Method in brief: as §1

[19] = target: Gal(b1-4)GlcNAc
Method in brief: as §1

[20] = target: Gal(b1-4)GlcNAc(a1-6)Gal(b1-4)GlcNAc
Method in brief: as §1

[21] = target: Gal(b1-4)GlcNAc(b1-2)Man
Method in brief: as §1

[22] = target: Gal(b1-4)GlcNAc(b1-2)Man(a1-3)Man(b1-4)GlcNAc(b1-4)GlcNAc
Method in brief: as §1

[23] = target: Gal(b1-4)GlcNAc(b1-2)Man(a1-3)[Gal(b1-4)GlcNAc(b1-2)Man(a1-6)]Man(b1-4)GlcNAc(b1-4)GlcNAc
Method in brief: as §1

[24] = target: Gal(b1-4)GlcNAc(b1-2)Man(a1-3)[Gal(b1-4)GlcNAc(b1-2)Man(a1-6)]Man(b1-4)GlcNAc(b1-4)[Fuc(a1-6)]GlcNAc
Method in brief: as §1

[25] = target: Gal(b1-4)GlcNAc(b1-2)Man(a1-3)[Gal(b1-4)GlcNAc(b1-2)Man(a1-6)][Gal(b1-4)GlcNAc(b1-4)]Man(b1-4)GlcNAc(b1-4)[Fuc(a1-6)]GlcNAc
Method in brief: as §1

[26] = target: Gal(b1-4)GlcNAc(b1-2)Man(a1-3)[Gal(b1-4)GlcNAc(b1-2)Man(a1-6)][GlcNAc(b1-4)]Man(b1-4)GlcNAc(b1-4)[Fuc(a1-6)]GlcNAc
Method in brief: as §1

[27] = target: Gal(b1-4)GlcNAc(b1-2)Man(a1-3)[GlcNAc(b1-2)Man(a1-6)]Man(b1-4)GlcNAc(b1-4)GlcNAc
Method in brief: as §1

[28] = target: Gal(b1-4)GlcNAc(b1-2)Man(a1-3)[GlcNAc(b1-4)][Gal(b1-4)GlcNAc(b1-2)Man(a1-6)]Man(b1-4)GlcNAc(b1-4)GlcNAc
Method in brief: as §1

[29] = target: Gal(b1-4)GlcNAc(b1-2)Man(a1-3)[Man(a1-6)]Man(b1-4)GlcNAc(b1-4)GlcNAc
Method in brief: as §1

[30] = target: Gal(b1-4)GlcNAc(b1-2)Man(a1-6)Man(b1-4)GlcNAc(b1-4)GlcNAc
Method in brief: as §1

[31] = target: Gal(b1-4)GlcNAc(b1-2)Man(a1-6)[GlcNAc(b1-2)Man(a1-3)]Man(b1-4)GlcNAc(b1-4)GlcNAc
Method in brief: as §1

[32] = target: Gal(b1-4)GlcNAc(b1-2)Man(a1-6)[Man(a1-3)]Man(b1-4)GlcNAc(b1-4)GlcNAc
Method in brief: as §1

[33] = target: Gal(b1-4)GlcNAc(b1-2)[Gal(b1-4)GlcNAc(b1-4)]Man(a1-3)[Gal(b1-4)GlcNAc(b1-2)Man(a1-6)]Man(b1-4)GlcNAc(b1-4)GlcNAc
Method in brief: as §1

[34] = target: Gal(b1-4)GlcNAc(b1-2)[Gal(b1-4)GlcNAc(b1-4)]Man(a1-3)[Gal(b1-4)GlcNAc(b1-2)[Gal(b1-4)GlcNAc(b1-6)]Man(a1-6)]Man(b1-4)GlcNAc(b1-4)GlcNAc
Method in brief: as §1

[35] = target: Gal(b1-4)GlcNAc(b1-2)[Gal(b1-4)GlcNAc(b1-4)]Man(a1-3)[GlcNAc(b1-4)][Gal(b1-4)GlcNAc(b1-2)Man(a1-6)]Man(b1-4)GlcNAc(b1-4)GlcNAc
Method in brief: as §1

[36] = target: Gal(b1-4)GlcNAc(b1-2)[Gal(b1-4)GlcNAc(b1-4)]Man(a1-3)[GlcNAc(b1-4)][Gal(b1-4)GlcNAc(b1-2)[Gal(b1-4)GlcNAc(b1-6)]Man(a1-6)]Man(b1-4)GlcNAc(b1-4)GlcNAc
Method in brief: as §1

[37] = target: Gal(b1-4)GlcNAc(b1-2)[Gal(b1-4)GlcNAc(b1-6)]Man(a1-6)[Gal(b1-4)GlcNAc(b1-2)Man(a1-3)]Man(b1-4)GlcNAc(b1-4)GlcNAc
Method in brief: as §1

[38] = target: Gal(b1-4)GlcNAc(b1-2)[Gal(b1-4)GlcNAc(b1-6)]Man(a1-6)[Gal(b1-4)GlcNAc(b1-2)Man(a1-3)]Man(b1-4)GlcNAc(b1-4)[Fuc(a1-6)]GlcNAc
Method in brief: as §1

[39] = target: Gal(b1-4)GlcNAc(b1-2)[Gal(b1-4)GlcNAc(b1-6)]Man(a1-6)[GlcNAc(b1-4)][Gal(b1-4)GlcNAc(b1-2)Man(a1-3)]Man(b1-4)GlcNAc(b1-4)GlcNAc
Method in brief: as §1

[40] = target: Gal(b1-4)GlcNAc(b1-2)[Gal(b1-4)GlcNAc(b1-6)]Man(a1-6)[GlcNAc(b1-4)][Gal(b1-4)GlcNAc(b1-2)[Gal(b1-4)GlcNAc(b1-4)]Man(a1-3)]Man(b1-4)GlcNAc(b1-4)[Fuc(a1-6)]GlcNAc
Method in brief: as §1

[41] = target: Gal(b1-4)GlcNAc(b1-3)Gal(b1-3)GalNAc
Method in brief: as §1

[42] = target: Gal(b1-4)GlcNAc(b1-3)Gal(b1-3)GlcNAc
Method in brief: as §1

[43] = target: Gal(b1-4)GlcNAc(b1-3)Gal(b1-4)Glc
Method in brief: as §1

[44] = target: Gal(b1-4)GlcNAc(b1-3)Gal(b1-4)GlcNAc
Method in brief: as §1

[45] = target: Gal(b1-4)GlcNAc(b1-3)Gal(b1-4)GlcNAc(b1-2)Man(a1-3)[Gal(b1-4)GlcNAc(b1-3)Gal(b1-4)GlcNAc(b1-2)Man(a1-6)]Man(b1-4)GlcNAc(b1-4)GlcNAc
Method in brief: as §1

B1: MUB70 (Lactobacillus reuteri) (protein)
chain: CVHVQYIDGETDQMLRQDDLDGYTDETIPYSTAEGIKKFEGDGYELFKDNFPAGEKFDNDDTNDQFYTVIF
- glycan array binding signal (z-score) [1]: -0.196
- glycan array binding signal (z-score) [2]: -0.34
- glycan array binding signal (z-score) [3]: -0.072
- glycan array binding signal (z-score) [4]: 0.153
- glycan array binding signal (z-score) [5]: -0.586
- glycan array binding signal (z-score) [6]: -1
- glycan array binding signal (z-score) [7]: -0.379
- glycan array binding signal (z-score) [8]: 0.083
- glycan array binding signal (z-score) [9]: -0.459
- glycan array binding signal (z-score) [10]: -0.653
- glycan array binding signal (z-score) [11]: 0.618
- glycan array binding signal (z-score) [12]: -0.73
- glycan array binding signal (z-score) [13]: -0.309
- glycan array binding signal (z-score) [14]: -0.017
- glycan array binding signal (z-score) [15]: -0.017
- glycan array binding signal (z-score) [16]: -0.75
- glycan array binding signal (z-score) [17]: -0.459
- glycan array binding signal (z-score) [18]: -0.489
- glycan array binding signal (z-score) [19]: -0.632
- glycan array binding signal (z-score) [20]: -0.067
- glycan array binding signal (z-score) [21]: -0.018
- glycan array binding signal (z-score) [22]: 0.416
- glycan array binding signal (z-score) [23]: -0.322
- glycan array binding signal (z-score) [24]: -0.056
- glycan array binding signal (z-score) [25]: -0.001
- glycan array binding signal (z-score) [26]: 0.228
- glycan array binding signal (z-score) [27]: -0.774
- glycan array binding signal (z-score) [28]: -0.499
- glycan array binding signal (z-score) [29]: 0.1
- glycan array binding signal (z-score) [30]: 0.58
- glycan array binding signal (z-score) [31]: -0.484
- glycan array binding signal (z-score) [32]: 0.734
- glycan array binding signal (z-score) [33]: 0.112
- glycan array binding signal (z-score) [34]: 0.058
- glycan array binding signal (z-score) [35]: -0.687
- glycan array binding signal (z-score) [36]: -0.567
- glycan array binding signal (z-score) [37]: -0.71
- glycan array binding signal (z-score) [38]: -0.356
- glycan array binding signal (z-score) [39]: -0.943
- glycan array binding signal (z-score) [40]: -0.625
- glycan array binding signal (z-score) [41]: -0.148
- glycan array binding signal (z-score) [42]: 0.869
- glycan array binding signal (z-score) [43]: -0.185
- glycan array binding signal (z-score) [44]: -0.399
- glycan array binding signal (z-score) [45]: 0.425
